Reference: PubChem BioAssay AID493014 (National Center for Advancing Translational Sciences (NCATS), 2011)
The other results are listed elsewhere or left out. These are further read-outs of the screen, such as a control signal, another cell line or another target. No call is given for them. Most of these compounds were active or inconclusive in the main read-out, so they are no random draw. Words in brackets tell the shape of the fitted curve; partial curves, single points and poor fits give uncertain potencies.

Test: qHTS Assay to Find Inhibitors of Chronic Active B-Cell Receptor Signaling
Conditions: ABC-DLBCL IkBa-CBG/CBR reporter, luminescence ratio (green luciferase fused to IkBa over red control in TMD8 lymphoma cells), 4 h
Description: NIH Molecular Libraries Probe Production Network [MLPCN] NIH Chemical Genomics Center [NCGC] MLPCN Grant: 1 R03 DA031086-01A1 PI Name: Dr. R. Eric Davis NCGC Assay Overview: Diffuse large B-cell lymphoma (DLBCL) is the most common category of non-Hodgkin lymphoma, with ~20,000 new cases per year in the United States. DLBCL should be regarded as a collection of different neoplasms. Microarray gene expression analysis has defined two principal types of DLBCL, named for their similarity to normal B cell stages or activation states: a germinal center B-cell (GCB) type, and an activated B-cell (ABC) type. In ABC-DLBCL, a constitutive high-level activity of the NF-kappaB family of transcription factors has been observed (1) and NF-kappaB target genes are more highly expressed in ABC primary tumors than in GCB tumors. Functional studies have shown a constitutive high-level activity of the IkappaB (inhibitor of kappa-B) kinase (IKK) complex. […] Further analysis of DLBCL primary tumors for NF-kappaB target gene expression imply that although CARD11 is required for constitutive IKK activity in all ABC-DLBCL lines, mutations in CARD11 may be the root cause of IKK activation only in lines or tumors with such mutations. In other words, CARD11 mutations may explain NF-kappaB activation in only 10% of ABC-DLBCL cases. […] This process has been termed 'chronic active BCR signaling' (CABS). The goal of this screen is to find small-molecule inhibitors of the CABS pathway found in ABC-DLBCL lines using a cell-based assay that measures IkappaBalpa stability, which has already been extensively validated in the OCI-Ly3 line (PubChem AID:445; REF: 4). […] The assay uses green (CBG68) and red (CBR) emitting beetle luciferases [Chroma-GloTM developed by Promega Corp.] where the green luciferase is fused to IkappaBalpha and the red luciferase is present in its native state. Both luciferase genes are stably present in the TMD8 human ABC DLBCL cell line, but their expression is under the control of tetracycline-inducible promoters. Following the addition of doxycycline to induce expression of the luciferases, the green luminescence in control cultures rises only slowly because the CBG fusion partner IkappaBalpha is targeted by IKK activity for rapid degradation. In contrast, green luminescence rises rapidly in the presence of proteasome inhibitors or IKK inhibitors. The rise in red luminescence of CBR is not affected by proteasome or IKK inhibitors, and serves as normalization for cell number and nonspecific effects. Compounds were screened as a concentration-titration series that ranged from 46 uM to 3 nM.
NCGC Assay Protocol Summary: Cells were seeded in 1536-well plates at 5000 cells/4uL in IMDM medium containing 0.5% FBS, w/o phenol red, 1% penicillin/streptomycin. Then, 23 nL of compounds or DMSO were delivered to each well using a pin tool. One uL 20ng/ml doxycycline was then dispensed into white solid 1536-well plates and the plates were incubated at 37C/5% C02 in a cell incubator for 4 hrs. Then 4 uL luminescent substrate mix (in-house prepared: 150 mM Tris-Cl, pH 7.6, 3 mM MgCl2, 1% Triton X-100, 5 mM DTT, 0.2 mM CoA, 0.15 mM ATP, 5 mM D-luciferin, final concentrations) was added to each well. The plate was incubated at r.t. for 10-15 min. The plates were measured on a ViewLux plate reader for green luminescence (540/20 nm filter) and red luminescence (618/8 nm filter). The green and red luminescent signals were corrected for red and green luminescence filter overlap using previously determined filter calibration constants (determined using the procedure outlined in the Promega Technical Manual; REF 4). The %Activity was determined from the ratio of corrected green/red luminescent values. MG132 were used as control. […] Red luminescent %Activity was normalized to the difference between red luminesence in basal cells (0%Activity) and zero luminescence (-100% Activity). […]

[1] = measured here: CBR red luminescence, cell number
[2] = measured here: IkBa-CBG green luminescence

Compound	AC50 [1]	AC50 [2]
CCc1nnc(NC(=O)OCc2ccccc2)s1	13 µM [falling, partial curve, poor fit]	
NC(=S)N/N=C/c1ccccc1OC(=O)/C=C/c1ccccc1	35.5 µM [falling, single point]	11.2 µM [falling, partial curve]
Cc1ccc(Nc2nc3ccccc3n3cnnc23)cc1C	0.631 µM [rising, full curve, poor fit]	
Nn1c(SCC(=O)Nc2ccc(F)cc2)nnc1-c1ccccn1	12.6 µM [falling, partial curve, poor fit]	
O=C(C1CCC(CNS(=O)(=O)c2cccc3nsnc23)CC1)N1CC=C(c2ccccc2)CC1 (stereo not given)	32.6 µM [falling, single point]	
COc1cc(/C=C/C(=O)OCC(=O)N(C)C2CCS(=O)(=O)C2)ccc1OC(F)F (stereo not given)	35.5 µM [falling, partial curve, poor fit]	
CC(C)(NC(=O)N1CCCC1)c1cccc(C(C)(C)NC(=O)N2CCCC2)c1	0.731 µM [falling, partial curve, poor fit]	
CC1(C)Cc2ccccc2C(=NCCCCCC(=O)O)N1	23.1 µM [rising, single point]	
COc1ccc(Oc2nc3ccccc3n3cccc23)cc1	6.51 µM [rising, partial curve, poor fit]	
COc1ccc(Nc2nc(-c3c[nH]c4ccccc34)cs2)cc1	29.1 µM [falling, single point]	
Cc1ccc([N+](=O)[O-])cc1NC(=O)CN(C(=O)c1ccccc1Cl)C1CCCCC1		23.1 µM [rising, partial curve, poor fit]
O=C(OCCCOC(=O)c1ccc(O)cc1)c1ccc(O)cc1	35.5 µM [falling, single point]	
O=Cc1cn(CCOc2ccccc2)c2ccccc12	7.94 µM [rising, partial curve, poor fit]	
CCn1c(O)c(C=Nc2ccccc2)sc1=S	35.5 µM [falling, single point]	
CCOc1ncccc1C(=O)OCc1ccc(C(=O)OC)o1	6.31 µM [rising, single point]	
COc1ccc(CN2CC(C(=O)NCc3ccccn3)CC2=O)cc1 (stereo not given)	29.1 µM [rising, single point]	
Oc1cccc(Nc2nc(N3CCOCC3)nc(N3CCOCC3)n2)c1	15.8 µM [falling, single point]	8.91 µM [falling, partial curve, poor fit]
Cc1cc(C)c2sc(NC(=O)c3ccc([N+](=O)[O-])o3)nc2c1	35.5 µM [falling, single point]	

3 entries from above, arranged by molar mass, rising:
Compound	AC50 [1]	AC50 [2]
Cc1ccc(Nc2nc3ccccc3n3cnnc23)cc1C	0.631 µM [rising, full curve, poor fit]	
Nn1c(SCC(=O)Nc2ccc(F)cc2)nnc1-c1ccccn1	12.6 µM [falling, partial curve, poor fit]	
O=C(C1CCC(CNS(=O)(=O)c2cccc3nsnc23)CC1)N1CC=C(c2ccccc2)CC1 (stereo not given)	32.6 µM [falling, single point]	
